Experimental data as given in publication PMC5421193.
No constants are given. Whether binding was seen depends on the method and setting. For some assays here: Binding seen in cells or lysates may run through a third protein. Some entries that bind do so weakly or less than the wild type. For some assays here: Tags and fused reporters may be left off the sequences shown.

Key:
[1] = biological target: Arabidopsis FT (AtFT), bait in pGBKT7 (Arabidopsis thaliana), Q9SXZ2; assay: two-hybrid; AtFD as prey in PGADT7, FT/TFL1 homologs as bait in PGBKT7; co-transformed yeast selected on SD-Leu/-Trp, interactions tested on SD-Leu/-Trp/-His/-Ade/X-a-Gal; three independent clones for each transformation; settings: remark: other sources report otherwise
[2] = biological target: AtFT-YFP^C (Arabidopsis FT fused to the C-terminal half of YFP) (Arabidopsis thaliana), Q9SXZ2; assay: split reporter; BiFC in N. benthamiana leaf epidermis cells; AtFD-YFP^N (pFGC-YN173) with FT/TFL1 homologs fused to YFP^C (pFGC-YC155); YFP fluorescence by confocal microscopy; settings: remark: other sources report otherwise

| binding [1] | binding [2] | Binder |
| --- | --- | --- |
| binds | – | Arabidopsis FD (AtFD), prey in pGADT7, Q84JK2 1-285 (protein) MLSSAKHQRNHRLSATNKNQTLTKVSSISSSSPSSSSSSSSTSSSSPLPSQDSQAQKRSLVTMEEVWNDINLASIHHLNRHSPHPQHNHEPRFRGQNHHNQNPNSIFQDFLKGSLNQEPAPTSQTTGSAPNGDSTTVTVLYSSPFPPPATVLSLNSGAGFEFLDNQDPLVTSNSNLHTHHHLSNAHAFNTSFEALVPSSSFGKKRGQDSNEGSGNRRHKRMIKNRESAARSRARKQAYTNELELEVAHLQAENARLKRQQDQLKMAAAIQQPKKNTLQRSSTAPF |
| – | binds | AtFD-YFP^N (Arabidopsis FD fused to the N-terminal half of YFP), Q84JK2 1-285 (protein) MLSSAKHQRNHRLSATNKNQTLTKVSSISSSSPSSSSSSSSTSSSSPLPSQDSQAQKRSLVTMEEVWNDINLASIHHLNRHSPHPQHNHEPRFRGQNHHNQNPNSIFQDFLKGSLNQEPAPTSQTTGSAPNGDSTTVTVLYSSPFPPPATVLSLNSGAGFEFLDNQDPLVTSNSNLHTHHHLSNAHAFNTSFEALVPSSSFGKKRGQDSNEGSGNRRHKRMIKNRESAARSRARKQAYTNELELEVAHLQAENARLKRQQDQLKMAAAIQQPKKNTLQRSSTAPF |
